Test results reported in PubChem BioAssay AID662 (National Center for Advancing Translational Sciences (NCATS), 2007).
Where “and” joins values, the source holds several entries; their conditions need not be identical. Equal entries are not always repeated. The list shows a part of the results. These are further read-outs of the screen, such as a control signal, another cell line or another target. No call is given for them. Most of these compounds were active or inconclusive in the main read-out, so they are no random draw. The note in brackets gives the kind of curve behind each potency; many fits are weak.

Assay: Cell signaling CRE-BLA (Fsk stim)
Conditions: CHO CRE-bla reporter (cAMP response element driving beta-lactamase), forskolin EC10, beta-lactamase ratio; measured here: 460 nm blue channel
How it was run: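 CRE-bla CHO cells stimulated with EC10 NKH 477 (water-soluble forskolin) and compound titrations, 3 h at 37C; beta-lactamase read with CCF4 after 2 h at room temperature. Activity from 460/530 nm emission ratio, AC50 values for positive or negative modulation.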
For `CCOC(=O)c1[nH]cnc1C(=O)Nc1ccccn1`, the AC50 was 12.6 µM [rising, partial curve].
With `Cc1ccc2nc(-c3cccc(S(=O)(=O)N(C)C)c3)cn2c1` the AC50 was 10 µM [rising, partial curve, poor fit].
In the case of `CC1(C)CC(=O)C=C(Nc2ccc(S(N)(=O)=O)cc2)C1`, the AC50 is reported as 0.00398 µM [falling, full curve].
In the case of `COc1ccc(Oc2ncc3nc(C)c(=O)n(Cc4ccc(F)cc4)c3n2)cc1`, the AC50 is reported as 7.94 µM [rising, partial curve].
For `COc1ccc(CC(C)N2CCN(c3ccccc3OC)CC2)cc1OC` (centres undefined), the AC50 was 5.01 µM [falling, partial curve].
In the case of `COc1ccc(C(=O)C(CN2CCOCC2)c2ccccc2)cc1F` (centres undefined), the AC50 is reported as 7.94 µM [falling, partial curve].
For `O=C1Nc2ccc(I)cc2/C1=C/c1cc(Br)c(O)c(Br)c1`, the AC50 was 5.01 µM [falling, partial curve, poor fit] and 25.1 µM [falling, partial curve].
For `CCc1cc2c(CN3CCN(C)CC3)cc(=O)oc2cc1O`, the AC50 was 12.6 µM [rising, partial curve].
With `Cc1nc2ccccc2c2oc(C(=O)NCC3COc4ccccc4O3)cc12` (centres undefined) the AC50 was 25.1 µM [falling, single point].
In the case of `CN(C)C(=O)N1CCC(C(=O)NCc2cccs2)CC1`, the AC50 is reported as 25.1 µM [rising, single point].
For `Cc1nnc(Oc2ccccc2F)c2ccccc12`, the AC50 was 0.0251 µM [falling, full curve, poor fit].
For `O=C(Nc1cccc(F)c1)c1c(F)c(F)c(F)c(F)c1F`, the AC50 was 15.8 µM [falling, partial curve].
For `CCc1c(C)nc(SC)n(CC#N)c1=O`, the AC50 was 10 µM [rising, single point].
With `CC(=O)N1CCC2(CCCN(C(c3ccccc3)c3ccccc3)C2)CC1` the AC50 was 12.6 µM [rising, partial curve].
With `COc1ccc(-c2ccc(-c3noc(-c4ccccc4C)n3)c(OC)n2)cc1` the AC50 was 12.6 µM [rising, partial curve].
In the case of `Oc1ccc2ccccc2c1/C=C\c1ccc2c(Br)cc(Br)c(O)c2n1`, the AC50 is reported as 3.98 µM [rising, single point].
In the case of `CCOC(=O)c1oc2ccc(Br)cc2c1NC(=O)CN1CCN(C)CC1`, the AC50 is reported as 0.631 µM [rising, full curve].
With `O=C(NCc1ccc2c(c1)OCO2)c1ccc2snnc2c1` the AC50 was 0.00398 µM [falling, full curve, poor fit].
With `O=C1c2ccccc2C(=O)N1CCCCSc1nnc(-c2ccc(OC(F)F)cc2)o1` the AC50 was 3.98 µM [falling, full curve].
With `Cn1nc(C(=O)NCc2cccnc2)c2ccccc2c1=O` the AC50 was 25.1 µM [rising, single point].
For `CN(C)c1ccc(/C=c2\sc3n(c2=O)CCCN=3)cc1`, the AC50 was 5.01 µM [rising, partial curve].
For `COc1ccc(-c2nnn(CC(=O)c3ccc4c(c3)OCCO4)n2)cc1OC`, the AC50 was 25.1 µM [rising, single point].
For `O=c1c(-c2ccc(F)cc2)nc2cnc(N3CCNCC3)nc2n1-c1ccccc1`, the AC50 was 3.16 µM [rising, full curve].
In the case of `Cc1cccc(CNc2cc(-c3ccc(C(=O)N(C)C)cc3)ncn2)c1`, the AC50 is reported as 3.98 µM [rising, full curve].
With `COC(=O)CC(=O)CSc1nc(C)cc(C)c1C#N` the AC50 was 10 µM [rising, partial curve].
In the case of `COc1cc2ccc(=O)oc2cc1O`, the AC50 is reported as 10 µM [rising, partial curve] and 12.6 µM [rising, partial curve].
In the case of `COc1ccc2cnn(Cc3ccccc3)c(=O)c2c1OC`, the AC50 is reported as 10 µM [rising, single point].
In the case of `Cc1ccc(-n2nnnc2SCC(=O)c2cc(C)n(CC3CCCO3)c2C)cc1` (centres undefined), the AC50 is reported as 5.01 µM [rising, partial curve].
For `Cc1ccc2c(c1)C(=O)[C@@]1(O)CCN(c3ccccc3)C1=N2`, the AC50 was 20 µM [falling, partial curve, poor fit].
With `CC(=O)c1ccc(-n2nncc2C)cc1` the AC50 was 0.501 µM [falling, single point].
With `Cn1nc(-c2ccc(Cl)cc2)c2cc(C(=O)NCCCN3CCOCC3)sc21` the AC50 was 5.01 µM [rising, partial curve].
With `COc1ccc2c(c1)C=CC1(O2)N(CCO)c2ccccc2C1(C)C` (centres undefined) the AC50 was 12.6 µM [rising, single point].
For `COc1ccc(OC)c(S(=O)(=O)Nc2c(F)cccc2F)c1`, the AC50 was 0.00398 µM [falling, full curve, poor fit].
With `O=C(CN1CCN(c2ccc(Cl)cc2)CC1)c1ccc2c(c1)OCO2` the AC50 was 0.398 µM [falling, full curve].
For `Cc1cc(C)cc(C(=O)/C=C2\NC(=O)CS2)c1`, the AC50 was 2.51 µM [falling, full curve, poor fit].
For `C#CCNc1c(C)c(C)nc2ncnn12`, the AC50 was 10 µM [rising, partial curve].
In the case of `CC(C)Cn1cnc2c(N)nc3ccccc3c21`, the AC50 is reported as 0.501 µM [rising, partial curve, poor fit].
For `COc1nc(NC(C)=O)nc(C)c1Br`, the AC50 was 12.6 µM [rising, partial curve].
In the case of `Cc1ccc(S(=O)(=O)N2CCN(C(=O)N3CCOCC3)C2C)cc1` (centres undefined), the AC50 is reported as 3.16 µM [falling, single point].
In the case of `c1ccc2c(SCc3cn4cccnc4n3)ncnc2c1`, the AC50 is reported as 10 µM [rising, single point].
With `CCOC(=O)c1c(-c2ccc(C)o2)csc1NC(=O)CSc1nnnn1-c1ccccc1` the AC50 was 6.31 µM [rising, partial curve].
For `O=C(c1cccc(F)c1)N1CCN(c2cccc(Cl)c2)CC1`, the AC50 was 0.316 µM [rising, full curve, poor fit].
With `CC(=O)N(c1ccc(Cl)cc1)c1c[nH]c2ccccc12` the AC50 was 0.00316 µM [falling, full curve, poor fit].
With `Cn1c(CSc2ccccc2)c(C#N)c2ccccc21` the AC50 was 31.6 µM [falling, single point].
In the case of `O=C(CN1CCC(n2nnc3cc(F)ccc32)CC1)NC1CCCCC1`, the AC50 is reported as 10 µM [rising, single point].
In the case of `CCNc1ncc2nc(C)c(=O)n(CCc3ccccc3)c2n1`, the AC50 is reported as 3.98 µM [rising, partial curve].
With `O=C(c1ccccc1)N(Cc1cccs1)C1CCS(=O)(=O)C1` (centres undefined) the AC50 was 5.01 µM [falling, single point].
In the case of `COCCn1c(=S)[nH]c2cc(OC)c(OC)cc2c1=O`, the AC50 is reported as 12.6 µM [rising, single point].
In the case of `CNc1nc(-c2cccnc2)nc2ccccc12`, the AC50 is reported as 10 µM [rising, single point].
With `c1ccc(CCc2ccccc2-c2nc(-c3cccnc3)no2)cc1` the AC50 was 2.51 µM [rising, partial curve, poor fit].
With `COc1ccccc1C1C(C(C)=O)=C(O)C(=O)N1CCc1ccccc1` (centres undefined) the AC50 was 1.26 µM [falling, full curve, poor fit].
For `COc1ccc(-n2c(SCC(=O)Nc3cc(C)on3)nc3c(c2=O)SCC3)cc1`, the AC50 was 0.631 µM [falling, single point].
With `CN(C)c1ncc2nc(-c3cccc(C#N)c3)c(=O)n(C[C@H]3CCCO3)c2n1` the AC50 was 6.31 µM [rising, partial curve].
For `Cc1noc(C)c1C(=O)Nc1sc2c(c1C(N)=O)CCC2`, the AC50 was 6.31 µM [rising, partial curve].
With `NC(=O)c1cc2n(n1)C(C(F)(F)F)CC(c1ccco1)N2` (centres undefined) the AC50 was 0.794 µM [falling, full curve, poor fit].
With `COc1ccc(C(c2nnnn2Cc2cccs2)N2CCN(c3ccccc3F)CC2)cc1` (centres undefined) the AC50 was 10 µM [falling, partial curve].
With `CCCn1c(SCC(=O)OCc2ccccc2)nc2c1c(=O)n(C)c(=O)n2C` the AC50 was 7.94 µM [rising, partial curve].
In the case of `C=CCn1c(N)c(C(=O)OC(C)CC)c2nc3ccccc3nc21` (centres undefined), the AC50 is reported as 10 µM [rising, partial curve].
For `COc1cccc(-c2nnc(SCc3nc4ccccc4[nH]3)n2N)c1`, the AC50 was 15.8 µM [rising, single point].
In the case of `CCOC(=O)c1c(NC(C)=O)sc2c1CCCNC2=O`, the AC50 is reported as 10 µM [rising, partial curve].
For `O=C(CN1C(=O)c2cccc3cccc1c23)Nc1ccc2c(c1)OCO2`, the AC50 was 25.1 µM [rising, single point].
For `O=C(CN1CCN(S(=O)(=O)c2ccc(Cl)cc2)CC1)Nc1ccc2c(c1)OCO2`, the AC50 was 0.158 µM [falling, full curve].
For `O=C1NC2=C(C(=O)c3ccccc32)C(c2ccccc2)N1` (centres undefined), the AC50 was 20 µM [rising, single point].
For `COc1cccc(CNCc2ccccn2)c1OC`, the AC50 was 0.794 µM [falling, full curve, poor fit].
In the case of `O=c1n(Cc2ccccc2Cl)c2sc3c(c2c2ncnn12)CCCC3`, the AC50 is reported as 2 µM [rising, partial curve, poor fit].
In the case of `O=C(O)C1CCCCC1C(=O)Nc1cnn(Cc2ccccc2)c1` (centres undefined), the AC50 is reported as 0.126 µM [falling, single point].
With `N#CC1=C(N)C(C#N)(C#N)[C@H](c2c(F)cccc2F)[C@H]2CC3(CC=C12)OCCO3` the AC50 was 25.1 µM [rising, single point].
For `CC1=C(C(=O)OC(C)C)C(c2cccnc2)C2=C(CCCC2=O)N1` (centres undefined), the AC50 was 12.6 µM [rising, partial curve].
In the case of `COc1ccc(-c2nc(SC)n(C)c(=O)c2C#N)cc1OC`, the AC50 is reported as 5.01 µM [rising, partial curve].
